The record followed here is US7247440B2 (Takeda Pharmaceutical Company Limited, priority 2001, dated 2007).

Where no end group is shown, it is not given here.

Data set [1] in a line: general procedure: Fmoc solid-phase peptide synthesis; 2-chlorotrityl resin; DCC/HOBt; HBTU. Conditions: whole synthesis, scale 150 mg of 0.25 mmol resin batch.
Data set [2] can be described thus: general procedure: Fmoc solid-phase peptide synthesis; 2-chlorotrityl resin (Clt resin, 1.33 mmol/g); Wang resin; DCC/HOBt; HBTU. The following applies: whole synthesis, scale of the general procedure 0.25 mmol.
Data set [3] in a line: general procedure: Fmoc solid-phase peptide synthesis; Wang resin; DCC/HOBt; HBTU. Conditions: whole synthesis, scale 0.25 mmol.

In the case of “Fmoc-Trp-Tyr-Lys-His-Val-Ala-Ser-Pro-Arg-Tyr-His-Thr-Val-Gly-Arg-Ala-Ala-Gly-Leu-Leu-Met-Gly-Leu”, the isolated mass in data set [1] came out at 9.7 mg.
Turning to WFKHVASPRYHTVGRAAGLL, the “final HPLC purity” value in data set [2] turned out to be 98.8%. The substance further gave an isolated mass in data set [3] of 35 mg.
